From the supplement of paper PMC8728848
Some of the results follow.

Key:
Assay in all cases: glycan array binding signal (z-score within array); higher = stronger binding
Conditions in all cases: glycan notation: IUPAC condensed, linker removed
[1] = molecular target: Gal(b1-4)GlcNAc(b1-2)Man(a1-6)[Man(a1-3)]Man(b1-4)GlcNAc(b1-4)GlcNAc
Outline: (§1)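 From the Consortium for Functional Glycomics database, 3228 arrays were curated, keeping only those whose protein sequence was available. Binding is given as a within-array Z-score averaged across arrays sharing a protein sequence and across linkers. Negative Z-scores can be read as non-binding.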

[2] = molecular target: Gal(b1-4)GlcNAc(b1-2)[Gal(b1-4)GlcNAc(b1-4)]Man(a1-3)[Gal(b1-4)GlcNAc(b1-2)Man(a1-6)]Man(b1-4)GlcNAc(b1-4)GlcNAc
Outline: as §1

[3] = molecular target: Gal(b1-4)GlcNAc(b1-2)[Gal(b1-4)GlcNAc(b1-4)]Man(a1-3)[Gal(b1-4)GlcNAc(b1-2)[Gal(b1-4)GlcNAc(b1-6)]Man(a1-6)]Man(b1-4)GlcNAc(b1-4)GlcNAc
Outline: as §1

[4] = molecular target: Gal(b1-4)GlcNAc(b1-2)[Gal(b1-4)GlcNAc(b1-4)]Man(a1-3)[GlcNAc(b1-4)][Gal(b1-4)GlcNAc(b1-2)Man(a1-6)]Man(b1-4)GlcNAc(b1-4)GlcNAc
Outline: as §1

[5] = molecular target: Gal(b1-4)GlcNAc(b1-2)[Gal(b1-4)GlcNAc(b1-4)]Man(a1-3)[GlcNAc(b1-4)][Gal(b1-4)GlcNAc(b1-2)[Gal(b1-4)GlcNAc(b1-6)]Man(a1-6)]Man(b1-4)GlcNAc(b1-4)GlcNAc
Outline: as §1

[6] = molecular target: Gal(b1-4)GlcNAc(b1-2)[Gal(b1-4)GlcNAc(b1-6)]Man(a1-6)[Gal(b1-4)GlcNAc(b1-2)Man(a1-3)]Man(b1-4)GlcNAc(b1-4)GlcNAc
Outline: as §1

[7] = molecular target: Gal(b1-4)GlcNAc(b1-2)[Gal(b1-4)GlcNAc(b1-6)]Man(a1-6)[Gal(b1-4)GlcNAc(b1-2)Man(a1-3)]Man(b1-4)GlcNAc(b1-4)[Fuc(a1-6)]GlcNAc
Outline: as §1

[8] = molecular target: Gal(b1-4)GlcNAc(b1-2)[Gal(b1-4)GlcNAc(b1-6)]Man(a1-6)[GlcNAc(b1-4)][Gal(b1-4)GlcNAc(b1-2)Man(a1-3)]Man(b1-4)GlcNAc(b1-4)GlcNAc
Outline: as §1

[9] = molecular target: Gal(b1-4)GlcNAc(b1-2)[Gal(b1-4)GlcNAc(b1-6)]Man(a1-6)[GlcNAc(b1-4)][Gal(b1-4)GlcNAc(b1-2)[Gal(b1-4)GlcNAc(b1-4)]Man(a1-3)]Man(b1-4)GlcNAc(b1-4)[Fuc(a1-6)]GlcNAc
Outline: as §1

[10] = molecular target: Gal(b1-4)GlcNAc(b1-3)Gal(b1-3)GalNAc
Outline: as §1

[11] = molecular target: Gal(b1-4)GlcNAc(b1-3)Gal(b1-3)GlcNAc
Outline: as §1

[12] = molecular target: Gal(b1-4)GlcNAc(b1-3)Gal(b1-4)Glc
Outline: as §1

[13] = molecular target: Gal(b1-4)GlcNAc(b1-3)Gal(b1-4)GlcNAc
Outline: as §1

[14] = molecular target: Gal(b1-4)GlcNAc(b1-3)Gal(b1-4)GlcNAc(b1-2)Man(a1-3)[Gal(b1-4)GlcNAc(b1-3)Gal(b1-4)GlcNAc(b1-2)Man(a1-6)]Man(b1-4)GlcNAc(b1-4)GlcNAc
Outline: as §1

[15] = molecular target: Gal(b1-4)GlcNAc(b1-3)Gal(b1-4)GlcNAc(b1-2)Man(a1-3)[Gal(b1-4)GlcNAc(b1-3)Gal(b1-4)GlcNAc(b1-2)Man(a1-6)]Man(b1-4)GlcNAc(b1-4)[Fuc(a1-6)]GlcNAc
Outline: as §1

[16] = molecular target: Gal(b1-4)GlcNAc(b1-3)Gal(b1-4)GlcNAc(b1-2)[Gal(b1-4)GlcNAc(b1-3)Gal(b1-4)GlcNAc(b1-6)]Man(a1-6)[Gal(b1-4)GlcNAc(b1-3)Gal(b1-4)GlcNAc(b1-2)Man(a1-3)]Man(b1-4)GlcNAc(b1-4)GlcNAc
Outline: as §1

[17] = molecular target: Gal(b1-4)GlcNAc(b1-3)Gal(b1-4)GlcNAc(b1-2)[Gal(b1-4)GlcNAc(b1-3)Gal(b1-4)GlcNAc(b1-6)]Man(a1-6)[Gal(b1-4)GlcNAc(b1-3)Gal(b1-4)GlcNAc(b1-2)Man(a1-3)]Man(b1-4)GlcNAc(b1-4)[Fuc(a1-6)]GlcNAc
Outline: as §1

[18] = molecular target: Gal(b1-4)GlcNAc(b1-3)Gal(b1-4)GlcNAc(b1-3)Gal(b1-4)GlcNAc
Outline: as §1

[19] = molecular target: Gal(b1-4)GlcNAc(b1-3)Gal(b1-4)GlcNAc(b1-3)Gal(b1-4)GlcNAc(b1-2)Man(a1-3)[Gal(b1-4)GlcNAc(b1-3)Gal(b1-4)GlcNAc(b1-3)Gal(b1-4)GlcNAc(b1-2)Man(a1-6)]Man(b1-4)GlcNAc(b1-4)GlcNAc
Outline: as §1

[20] = molecular target: Gal(b1-4)GlcNAc(b1-3)Gal(b1-4)GlcNAc(b1-3)Gal(b1-4)GlcNAc(b1-2)Man(a1-3)[Gal(b1-4)GlcNAc(b1-3)Gal(b1-4)GlcNAc(b1-3)Gal(b1-4)GlcNAc(b1-2)Man(a1-6)]Man(b1-4)GlcNAc(b1-4)[Fuc(a1-6)]GlcNAc
Outline: as §1

[21] = molecular target: Gal(b1-4)GlcNAc(b1-3)Gal(b1-4)GlcNAc(b1-3)Gal(b1-4)GlcNAc(b1-2)[Gal(b1-4)GlcNAc(b1-3)Gal(b1-4)GlcNAc(b1-3)Gal(b1-4)GlcNAc(b1-6)]Man(a1-6)[Gal(b1-4)GlcNAc(b1-3)Gal(b1-4)GlcNAc(b1-3)Gal(b1-4)GlcNAc(b1-2)Man(a1-3)]Man(b1-4)GlcNAc(b1-4)[Fuc(a1-6)]GlcNAc
Outline: as §1

[22] = molecular target: Gal(b1-4)GlcNAc(b1-3)Gal(b1-4)GlcNAc(b1-3)Gal(b1-4)GlcNAc(b1-3)Gal(b1-4)GlcNAc(b1-2)Man(a1-3)[Gal(b1-4)GlcNAc(b1-3)Gal(b1-4)GlcNAc(b1-3)Gal(b1-4)GlcNAc(b1-3)Gal(b1-4)GlcNAc(b1-2)Man(a1-6)]Man(b1-4)GlcNAc(b1-4)GlcNAc
Outline: as §1

[23] = molecular target: Gal(b1-4)GlcNAc(b1-3)Gal(b1-4)GlcNAc(b1-3)Gal(b1-4)GlcNAc(b1-3)Gal(b1-4)GlcNAc(b1-2)Man(a1-3)[Gal(b1-4)GlcNAc(b1-3)Gal(b1-4)GlcNAc(b1-3)Gal(b1-4)GlcNAc(b1-3)Gal(b1-4)GlcNAc(b1-2)Man(a1-6)]Man(b1-4)GlcNAc(b1-4)[Fuc(a1-6)]GlcNAc
Outline: as §1

[24] = molecular target: Gal(b1-4)GlcNAc(b1-3)Gal(b1-4)GlcNAc(b1-3)Gal(b1-4)GlcNAc(b1-3)Gal(b1-4)GlcNAc(b1-2)[Gal(b1-4)GlcNAc(b1-3)Gal(b1-4)GlcNAc(b1-3)Gal(b1-4)GlcNAc(b1-3)Gal(b1-4)GlcNAc(b1-6)]Man(a1-6)[Gal(b1-4)GlcNAc(b1-3)Gal(b1-4)GlcNAc(b1-3)Gal(b1-4)GlcNAc(b1-3)Gal(b1-4)GlcNAc(b1-2)Man(a1-3)]Man(b1-4)GlcNAc(b1-4)[Fuc(a1-6)]GlcNAc
Outline: as §1

[25] = molecular target: Gal(b1-4)GlcNAc(b1-3)Gal(b1-4)GlcNAc(b1-3)Gal(b1-4)GlcNAc(b1-3)Gal(b1-4)GlcNAc(b1-3)Gal(b1-4)GlcNAc(b1-2)Man(a1-3)[Gal(b1-4)GlcNAc(b1-3)Gal(b1-4)GlcNAc(b1-3)Gal(b1-4)GlcNAc(b1-3)Gal(b1-4)GlcNAc(b1-3)Gal(b1-4)GlcNAc(b1-2)Man(a1-6)]Man(b1-4)GlcNAc(b1-4)GlcNAc
Outline: as §1

[26] = molecular target: Gal(b1-4)GlcNAc(b1-3)Gal(b1-4)GlcNAc(b1-3)Gal(b1-4)GlcNAc(b1-3)Gal(b1-4)GlcNAc(b1-3)Gal(b1-4)GlcNAc(b1-2)Man(a1-3)[Gal(b1-4)GlcNAc(b1-3)Gal(b1-4)GlcNAc(b1-3)Gal(b1-4)GlcNAc(b1-3)Gal(b1-4)GlcNAc(b1-3)Gal(b1-4)GlcNAc(b1-2)Man(a1-6)]Man(b1-4)GlcNAc(b1-4)[Fuc(a1-6)]GlcNAc
Outline: as §1

[27] = molecular target: Gal(b1-4)GlcNAc(b1-3)Gal(b1-4)GlcNAc(b1-3)Gal(b1-4)GlcNAc(b1-3)Gal(b1-4)GlcNAc(b1-3)Gal(b1-4)GlcNAc(b1-2)[Gal(b1-4)GlcNAc(b1-3)Gal(b1-4)GlcNAc(b1-3)Gal(b1-4)GlcNAc(b1-3)Gal(b1-4)GlcNAc(b1-3)Gal(b1-4)GlcNAc(b1-6)]Man(a1-6)[Gal(b1-4)GlcNAc(b1-3)Gal(b1-4)GlcNAc(b1-3)Gal(b1-4)GlcNAc(b1-3)Gal(b1-4)GlcNAc(b1-3)Gal(b1-4)GlcNAc(b1-2)Man(a1-3)]Man(b1-4)GlcNAc(b1-4)[Fuc(a1-6)]GlcNAc
Outline: as §1

[28] = molecular target: Gal(b1-4)GlcNAc(b1-3)Gal(b1-4)GlcNAc(b1-3)Gal(b1-4)GlcNAc(b1-3)Gal(b1-4)GlcNAc(b1-3)Gal(b1-4)GlcNAc(b1-3)Gal(b1-4)GlcNAc(b1-2)Man(a1-3)[Gal(b1-4)GlcNAc(b1-3)Gal(b1-4)GlcNAc(b1-3)Gal(b1-4)GlcNAc(b1-3)Gal(b1-4)GlcNAc(b1-3)Gal(b1-4)GlcNAc(b1-3)Gal(b1-4)GlcNAc(b1-2)Man(a1-6)]Man(b1-4)GlcNAc(b1-4)GlcNAc
Outline: as §1

[29] = molecular target: Gal(b1-4)GlcNAc(b1-3)Gal(b1-4)GlcNAc(b1-3)GalNAc
Outline: as §1

[30] = molecular target: Gal(b1-4)GlcNAc(b1-3)Gal(b1-4)GlcNAc(b1-3)[Gal(b1-4)GlcNAc(b1-3)Gal(b1-4)GlcNAc(b1-6)]GalNAc
Outline: as §1

[31] = molecular target: Gal(b1-4)GlcNAc(b1-3)Gal(b1-4)GlcNAc(b1-6)[Gal(b1-3)]GalNAc
Outline: as §1

[32] = molecular target: Gal(b1-4)GlcNAc(b1-3)Gal(b1-4)[Fuc(a1-3)]GlcNAc(b1-3)Gal(b1-4)[Fuc(a1-3)]GlcNAc
Outline: as §1

[33] = molecular target: Gal(b1-4)GlcNAc(b1-3)GalNAc
Outline: as §1

[34] = molecular target: Gal(b1-4)GlcNAc(b1-3)[Fuc(a1-3)GlcNAc(b1-6)]Gal(b1-4)Glc
Outline: as §1

[35] = molecular target: Gal(b1-4)GlcNAc(b1-3)[Gal(b1-4)GlcNAc(b1-6)]Gal(b1-4)GlcNAc
Outline: as §1

[36] = molecular target: Gal(b1-4)GlcNAc(b1-3)[GlcNAc(b1-6)]Gal(b1-4)GlcNAc
Outline: as §1

[37] = molecular target: Gal(b1-4)GlcNAc(b1-6)Gal(b1-4)GlcNAc
Outline: as §1

B1: B936 (Bifidobacterium sp) (protein)
chain: MKNWKKAIALVASAAALVSVAACGPSNAGGSSDSGKKTVGFVAVGPEGGFRTANEKDIQKAFEDAGFDLTYSPTQNNDQQKQIQAFNKFVNDEVDAIILSSTEDSGWDDSLKKAAEAEIPVFTVDRNVDVKDAEAKKAIVAHIGPSNVWCGEQAAEFVNKNFPDGANGFILEGPAGLSVVKDRGTGWGNKVASNVKVLESQSANWSTDEAKTVTAGLLDKYKSDNPQFIFAQNDEMGLGAAQAVDAAGLKGKVKIITIDGTKNALQALVDGDLSYVIEYNPIFGKETAQAVKDYLDGKTVEKDIEIESKTFDAASAKEALDNNTRAY
- glycan array binding signal (z-score) [1]: 0.233
- glycan array binding signal (z-score) [2]: -0.689
- glycan array binding signal (z-score) [3]: -0.107
- glycan array binding signal (z-score) [4]: -0.432
- glycan array binding signal (z-score) [5]: 1.55
- glycan array binding signal (z-score) [6]: -0.292
- glycan array binding signal (z-score) [7]: 0.232
- glycan array binding signal (z-score) [8]: -0.558
- glycan array binding signal (z-score) [9]: 0.523
- glycan array binding signal (z-score) [10]: -0.352
- glycan array binding signal (z-score) [11]: -0.603
- glycan array binding signal (z-score) [12]: 3.24
- glycan array binding signal (z-score) [13]: -0.345
- glycan array binding signal (z-score) [14]: 1.56
- glycan array binding signal (z-score) [15]: 0.379
- glycan array binding signal (z-score) [16]: 0.512
- glycan array binding signal (z-score) [17]: 0.864
- glycan array binding signal (z-score) [18]: -0.235
- glycan array binding signal (z-score) [19]: 0.363
- glycan array binding signal (z-score) [20]: 0.191
- glycan array binding signal (z-score) [21]: 0.555
- glycan array binding signal (z-score) [22]: -0.333
- glycan array binding signal (z-score) [23]: 0.964
- glycan array binding signal (z-score) [24]: 0.485
- glycan array binding signal (z-score) [25]: -0.371
- glycan array binding signal (z-score) [26]: 0.242
- glycan array binding signal (z-score) [27]: 0.853
- glycan array binding signal (z-score) [28]: 1.23
- glycan array binding signal (z-score) [29]: -0.441
- glycan array binding signal (z-score) [30]: 1.46
- glycan array binding signal (z-score) [31]: 0.28
- glycan array binding signal (z-score) [32]: -0.113
- glycan array binding signal (z-score) [33]: -0.511
- glycan array binding signal (z-score) [34]: -0.662
- glycan array binding signal (z-score) [35]: -0.009
- glycan array binding signal (z-score) [36]: -0.05
- glycan array binding signal (z-score) [37]: -0.507
